Primary screen of a compound library

Chains of the proteins cited; added tags and fusions are not shown. Residues count along the entry.
UniProt Q4DA54, 1-478: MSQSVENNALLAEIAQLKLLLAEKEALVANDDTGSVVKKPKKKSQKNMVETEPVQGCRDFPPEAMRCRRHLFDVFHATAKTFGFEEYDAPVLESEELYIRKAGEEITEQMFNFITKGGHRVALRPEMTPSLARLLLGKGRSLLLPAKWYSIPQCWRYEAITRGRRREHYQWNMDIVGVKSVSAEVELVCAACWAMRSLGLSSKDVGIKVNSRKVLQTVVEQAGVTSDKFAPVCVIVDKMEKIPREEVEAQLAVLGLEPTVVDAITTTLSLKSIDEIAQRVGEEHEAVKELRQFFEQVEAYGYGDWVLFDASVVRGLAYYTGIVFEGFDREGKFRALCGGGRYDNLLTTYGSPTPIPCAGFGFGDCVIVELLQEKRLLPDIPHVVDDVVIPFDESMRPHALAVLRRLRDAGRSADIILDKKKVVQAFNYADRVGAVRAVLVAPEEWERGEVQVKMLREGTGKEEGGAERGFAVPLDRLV

Source: ChEMBL document CHEMBL3988442, “University of Dundee, Small-Polar-MMV Screening Library” (2021).

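Histidine-tRNA ligase, Trypanosoma cruzi CL Brener (UniProt Q4DA54). Enzyme assay of histidyl-tRNA synthetase; the read-out is not stated. Compounds at 30 µM. Higher reads as stronger inhibition (inferred: compounds with an IC50 in retests scored well above the rest). Size under these conditions: about 69,000 compounds, about 31 of them at 50% or above in at least one test.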

Each number is a percent effect as filed. The controls that fix the scale are not given in the record; negative values are as filed. This is an unselected part of the compounds tested.

Compound | effect
C[C@@H]1CN(Cc2ccccc2)CCN1C(=O)NCc1nccs1 | 8.387%
c1ccc(-c2ccc(C3CNCCO3)nc2)cc1 (stereo not given) | 1.075%
Cc1cc(N2CCC(O)CC2)nc(C)n1 | -1.622%
CC(C)NC(=O)NCc1ccnc(N(C)C)n1 | 5.195%
CN(C)CCOCC1CN(C(=O)c2cscn2)Cc2ccnn2C1 (stereo not given) | 2.941%
Cc1ccccc1-c1cccc(CN2C[C@H]3C(=O)NC[C@@]3(C(=O)O)C2)c1 | 5.435%
O=C(NCCC(=O)N1CCCCCC1)c1c(O)cc(F)cc1F | 0.3774%
O=C(NC1CC1)[C@@H]1CCO[C@@H]2CCN(Cc3ccco3)C[C@H]21 | -2.941%
O=C(Nc1ccc(F)cc1)C1CCN(Cc2noc(C3CC3)n2)CC1 | 1.478%
COCc1cc(N(C)Cc2cnccn2)nc(C(C)(C)C)n1 | -1.478%
O=C(CCc1cccs1)NCC1CCCN1c1cccnn1 (stereo not given) | 3.191%
COc1ccccc1CNC(=O)N1CCCC(NS(C)(=O)=O)C1 (stereo not given) | 2.642%
c1ccc(NCc2cnc3n2CCN(CC2CCOC2)CC3)nc1 (stereo not given) | 15.97%
Cc1oc(-c2ccco2)nc1CN1CCc2cnc(C(C)C)nc2C1 | 18.09%
O=c1ccc2c(n1Cc1ccncc1)CCN(Cc1ccoc1)CC2 | 12.06%
Cc1ccc(N2CC[C@@H]3O[C@@H](COCc4cccnc4)CC[C@@H]32)nn1 | 0%
Cc1ccc(CS(=O)(=O)Cc2nc(N)nc(N(C)C)n2)cc1 | 10.61%
Cc1nc2cc(OCc3nc(C(=O)NC(CO)CO)co3)ccc2s1 | 0.5025%
CS(=O)(=O)N1CCCC12CCCN(C(=O)c1ccno1)C2 (stereo not given) | 1.087%
c1ccc(CC2(CNCc3ncc[nH]3)CCC2)cc1 | 2.521%
Cc1ccc(-n2nnc(C(=O)NC(C)C)c2C2CC2)cc1 | 4.624%
Cc1cc(C)n(C2CN(C(=O)Cn3c(C)cc(=O)c4ccccc43)C2)n1 | 4.938%
Cc1ccc(-c2csc3c(=O)[nH]c(N4CCCC(C(=O)O)C4)nc23)cc1 (stereo not given) | -10.31%
O=C1CCNc2cc3c(cc2CN1Cc1ccco1)OCO3 | 0%
Cn1c2c(ccc1=O)CC(NS(C)(=O)=O)CC2 (stereo not given) | 2.732%
CN(C)C(=O)c1ccc2c(c1)N(C)C(CC(=O)NCc1ncc[nH]1)CO2 (stereo not given) | 6.349%
CCCN(Cc1ccc(OC)nc1)Cc1ccccc1OC | -6.18%
O=C1[C@H]2CN(Cc3ccccn3)C[C@H]2CN1c1ccsc1 | 10.92%
CCn1c(C)nnc1CN(C)C1CCN(Cc2c(C)noc2C)C1 (stereo not given) | -1.163%
O=C(NCC1CC1)[C@H]1CC[C@@H]2[C@@H](CCN2Cc2ccoc2)O1 | -0.8475%
CC1(C)CC(=O)c2cnc3nc(N4CCCC4)[nH]c(=O)c3c2C1 | 7.216%
CC(=O)N[C@@H]1CN(C2CCN(c3cccc(C)c3C)CC2)C[C@H]1C(C)C | 3.911%
CCc1noc(CN2CCC(C(=O)Nc3cnn(CC)c3)CC2)n1 | 1.433%
CNC(=O)C1CCC2(CCNCC2)C1 (stereo not given) | 8.738%
NCC(c1ccccc1)N1CCc2sccc2C1 (stereo not given) | 9.783%
O=C(CSc1ncccn1)N1C[C@H]2CC[C@@H]1CN(Cc1ccncc1)C2 | 4.132%
Cc1cnn(C2CCCN(C(=O)c3cn(-c4ccccc4)nn3)C2)c1 (stereo not given) | 6.553%
O=C(CCc1ccccc1)N1C[C@H]2CCN[C@H]2C1 | 11.65%
COCCCNC(=O)c1cc(-c2cnc(N(C)C)nc2)cn1CC1CC1 | 5%
COc1ccc(N2Cc3nc(N)ncc3C2=O)cc1Cl | -16.15%
Cc1ncnc2c1CCN(C(=O)c1ccnnc1)CC2 | -4.478%
Cc1cccc(-n2ncc3c2CCCC3NCc2cccc(O)c2)c1C (stereo not given) | 0%
O=C(NCc1cccs1)[C@]12COC[C@H]1CN(c1ncccn1)C2 | 3.448%
O=C(Cc1cccc(Cl)c1)Nc1cnccc1SCCCO | 7.071%
OCC1(CC2CC2)CCCN(Cc2cnc(C3CCCCC3)nc2)C1 (stereo not given) | 10.16%
CCn1c(C)nnc1SCCNc1nc(C)ncc1S(C)(=O)=O | -4.831%
c1cnc(NCc2noc3c2CN(c2cnccn2)CC3)nc1 | 3.333%
CC(=O)c1ccc(N2CCC3(CCC(=O)N(CCCO)C3)CC2)nc1 | 6.404%
CN(C)C(=O)CN1CCCCC1c1nc(N)ncc1-c1ccccc1 (stereo not given) | 3.825%
Cc1nc(C2CCCN(C(=O)c3ccncc3)C2)c2sccn12 (stereo not given) | 10%
O=C1CN(C(=O)c2cc3ccc(Br)cc3[nH]2)CCN1 | 3.478%
CC(C)C(=O)NS(=O)(=O)c1ccc2c(c1)N(C)CCC2 | 0.5525%
O=C(NCCC1CN(Cc2cccnc2)CCO1)c1ccsc1 (stereo not given) | 3.061%
COCCN1CCO[C@@H]2CN(C(=O)Cc3ccccc3)CC[C@@H]2C1 | 9.195%
CCC1=N[C@@]2(CC[C@@H]3CN(C(=O)NCC(C)C)C[C@@H]32)C(=O)N1CC(C)C | 3.784%
Cc1cc(NC(=O)CN2CCc3nn(C)c(=O)cc3C2)no1 | 2.116%
O=C([C@@H]1Cc2[nH]cnc2CN1CC1CC1)N1CCCC1 | 0.9901%
CN1CCN(c2ccc(F)cc2C(N)=O)CC1 | 2%
COCC1CN(Cc2ccc(OC)cc2)Cc2nnn(CC3CC3)c21 (stereo not given) | 4.95%
c1ccc2oc(N3CCCC3Cn3cncn3)nc2c1 (stereo not given) | 4.651%
CCCn1[nH]cc/c1=N\C(=O)CN1CCOC(Cn2cc(C)cn2)C1 (stereo not given) | -1.887%
Cc1ccc(N2CCCc3sc(C(=O)NCCC#N)nc32)nn1 | -0.4975%
CN(C)c1ncc(-c2ccncc2)c(CCNC(=O)C2CC2)n1 | 4.981%
O=C(COC1CCCCC1)Nc1ccn(Cc2ccccn2)n1 | 4.211%
CC1=Nc2c(c(O)nn2C2CCOCC2)C(c2cccnc2)S1 (stereo not given) | 1.98%
CC(=O)Nc1ccc2c(c1)C1(CCOCC1)C(=O)N2c1ccsc1 | 6.952%
Cc1ccsc1-c1nccn1CCN1CCCOC1=O | 8.911%
CN(C)S(=O)(=O)N1CCN(c2cc(-n3cccc3)ncn2)CC1 | 3.627%
CSCc1ccc(CNCCN2CCOCC2)o1 | 6.863%
CN1CCC(c2nnc3ccc(C(=O)N4CCCCC4)cn23)C1 (stereo not given) | 4.516%
CCN(Cc1noc(CC(C)C)n1)Cc1cc2ccc(F)cc2[nH]c1=O | 15.2%
O=C(NCCNc1ncccn1)C1CC(=O)N(Cc2ccccn2)C1 (stereo not given) | -1.453%
Cc1nc2cc(O)nn2c(C)c1CCC(=O)NCc1cc(Br)cs1 | 7.471%
O=c1c2cccc(C(F)(F)F)c2ncn1C1CCNC1 (stereo not given) | 0.578%
CCn1cnnc1C1CCN(C(=O)CCCOc2ccccc2)CC1 | 3.333%
O=C(CN1CCCC(c2ccn[nH]2)C1)Nc1nc2c(s1)CCCC2 (stereo not given) | 14.04%
Cc1ccccc1CN(C)CC(O)COCc1ccccc1Cl (stereo not given) | 2.439%
Cn1cc(CN2CCN(CC3(c4ccccc4)CC3)CC2)cn1 | -0.7576%
Cn1cc(CN2CCOCC3(C2)CN(c2ccccc2)C(=O)CO3)cn1 (stereo not given) | 4.918%
CCn1ccc(NC(=O)C2CCC(=O)N2Cc2ccc(C)o2)n1 (stereo not given) | 6.736%
Cc1ccc(C(=O)NCCCNS(C)(=O)=O)cc1-n1cccc1 | 3.261%
O=C(CC1COCCN1S(=O)(=O)c1ccccc1)NCc1ccccn1 (stereo not given) | 7.179%
CC1CCN(Cc2ccccc2CNC(=O)C2CNC(=O)N2)CC1 (stereo not given) | 8.287%
CC(C)(Cn1cnc(-c2ccccc2)c1-c1ccco1)N1CCOCC1 | 9.827%
CN(C)c1ccnc(-c2ccnc3c2ccn3C)n1 | -1.961%
COc1ccc(C(C)NCCC(N)=O)cc1F (stereo not given) | 11.06%
O=C(O)c1ccnc(-c2ccnc(NCCc3nc4c(s3)CCC4)n2)c1 | 3.665%
Cc1nnnn1CCC(=O)N1CCC2(CCC(=O)N(CC3CC3)C2)CC1 | 14.14%
Cc1nn(CC(C)C)c(N(C)C)c1CNCCC(=O)NC(C)C | 5.202%
CCN(CC)Cc1cnc2n1CCN(C1CCOC1)CC2 (stereo not given) | 5.464%

Once more, the final 8:

{"compound": "CC1CCN(Cc2ccccc2CNC(=O)C2CNC(=O)N2)CC1", "stereo": "stereo not given", "effect": 8.287}
{"compound": "CC(C)(Cn1cnc(-c2ccccc2)c1-c1ccco1)N1CCOCC1", "effect": 9.827}
{"compound": "CN(C)c1ccnc(-c2ccnc3c2ccn3C)n1", "effect": -1.961}
{"compound": "COc1ccc(C(C)NCCC(N)=O)cc1F", "stereo": "stereo not given", "effect": 11.06}
{"compound": "O=C(O)c1ccnc(-c2ccnc(NCCc3nc4c(s3)CCC4)n2)c1", "effect": 3.665}
{"compound": "Cc1nnnn1CCC(=O)N1CCC2(CCC(=O)N(CC3CC3)C2)CC1", "effect": 14.14}
{"compound": "Cc1nn(CC(C)C)c(N(C)C)c1CNCCC(=O)NC(C)C", "effect": 5.202}
{"compound": "CCN(CC)Cc1cnc2n1CCN(C1CCOC1)CC2", "stereo": "stereo not given", "effect": 5.464}